The supplement of paper PMC12823440, “Inhibitors supercharge kinase turnover through native proteolytic circuits” (Nature, 2025)
This is one part of the list. Hit calls seldom repeat between salt and free forms of one compound.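 Kinases were expressed as nanoluciferase fusions in K562 cells and luminescence was read every 4 h between 2 and 18 h as percent of control, DMSO set to 100% and a positive control to 0%. A time point counts as decreased when the signal drops significantly (2 sigma). The hit call is the authors' own, does not follow from the count of time points alone, and its rule is not shown.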

Protein sequences, listed by entry. Tags and fused reporters are not part of them. Lines headed by an entry give the natural chain unless they say otherwise; changes in a name come on top.
UniProt P48729: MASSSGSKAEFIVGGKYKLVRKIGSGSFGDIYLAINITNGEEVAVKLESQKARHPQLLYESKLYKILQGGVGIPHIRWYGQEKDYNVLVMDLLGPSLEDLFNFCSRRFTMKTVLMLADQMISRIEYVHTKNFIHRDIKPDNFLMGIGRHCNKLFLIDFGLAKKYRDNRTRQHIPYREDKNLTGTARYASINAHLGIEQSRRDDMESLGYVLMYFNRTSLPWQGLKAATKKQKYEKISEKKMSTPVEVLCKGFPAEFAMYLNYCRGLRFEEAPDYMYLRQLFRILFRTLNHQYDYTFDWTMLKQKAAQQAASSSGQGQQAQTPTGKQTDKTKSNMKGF
UniProt P48730: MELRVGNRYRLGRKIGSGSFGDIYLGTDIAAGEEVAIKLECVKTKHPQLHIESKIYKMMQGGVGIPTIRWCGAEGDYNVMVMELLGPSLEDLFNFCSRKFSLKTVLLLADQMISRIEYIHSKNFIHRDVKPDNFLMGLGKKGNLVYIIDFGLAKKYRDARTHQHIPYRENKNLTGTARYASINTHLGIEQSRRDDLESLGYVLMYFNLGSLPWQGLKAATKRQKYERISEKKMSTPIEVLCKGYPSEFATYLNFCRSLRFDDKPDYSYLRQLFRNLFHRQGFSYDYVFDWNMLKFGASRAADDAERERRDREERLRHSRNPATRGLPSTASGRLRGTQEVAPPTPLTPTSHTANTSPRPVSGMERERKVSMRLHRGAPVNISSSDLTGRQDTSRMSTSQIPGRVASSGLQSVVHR
UniProt Q08345: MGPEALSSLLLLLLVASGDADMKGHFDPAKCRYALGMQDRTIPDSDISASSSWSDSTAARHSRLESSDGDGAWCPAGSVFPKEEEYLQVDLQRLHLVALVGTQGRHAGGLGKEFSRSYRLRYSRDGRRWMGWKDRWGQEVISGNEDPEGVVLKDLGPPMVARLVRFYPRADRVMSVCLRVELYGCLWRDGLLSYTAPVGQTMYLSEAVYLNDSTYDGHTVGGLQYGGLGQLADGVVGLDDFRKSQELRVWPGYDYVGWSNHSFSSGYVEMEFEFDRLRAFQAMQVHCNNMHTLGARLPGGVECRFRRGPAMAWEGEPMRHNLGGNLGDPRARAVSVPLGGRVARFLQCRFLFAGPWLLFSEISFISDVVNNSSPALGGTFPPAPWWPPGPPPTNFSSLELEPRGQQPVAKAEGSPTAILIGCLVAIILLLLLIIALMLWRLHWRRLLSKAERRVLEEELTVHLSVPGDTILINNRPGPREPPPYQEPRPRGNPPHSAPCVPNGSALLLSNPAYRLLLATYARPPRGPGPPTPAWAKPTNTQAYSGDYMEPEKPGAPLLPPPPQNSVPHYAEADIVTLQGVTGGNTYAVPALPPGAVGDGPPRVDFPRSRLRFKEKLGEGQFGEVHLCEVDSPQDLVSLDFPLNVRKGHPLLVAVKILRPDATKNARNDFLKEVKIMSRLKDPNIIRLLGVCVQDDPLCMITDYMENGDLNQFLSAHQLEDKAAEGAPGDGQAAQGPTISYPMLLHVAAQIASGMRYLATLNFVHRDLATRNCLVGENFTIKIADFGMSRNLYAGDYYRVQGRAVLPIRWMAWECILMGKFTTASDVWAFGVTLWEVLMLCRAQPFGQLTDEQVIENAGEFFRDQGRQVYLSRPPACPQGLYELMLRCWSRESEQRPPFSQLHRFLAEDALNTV
UniProt Q9Y463, whole entry, looked up: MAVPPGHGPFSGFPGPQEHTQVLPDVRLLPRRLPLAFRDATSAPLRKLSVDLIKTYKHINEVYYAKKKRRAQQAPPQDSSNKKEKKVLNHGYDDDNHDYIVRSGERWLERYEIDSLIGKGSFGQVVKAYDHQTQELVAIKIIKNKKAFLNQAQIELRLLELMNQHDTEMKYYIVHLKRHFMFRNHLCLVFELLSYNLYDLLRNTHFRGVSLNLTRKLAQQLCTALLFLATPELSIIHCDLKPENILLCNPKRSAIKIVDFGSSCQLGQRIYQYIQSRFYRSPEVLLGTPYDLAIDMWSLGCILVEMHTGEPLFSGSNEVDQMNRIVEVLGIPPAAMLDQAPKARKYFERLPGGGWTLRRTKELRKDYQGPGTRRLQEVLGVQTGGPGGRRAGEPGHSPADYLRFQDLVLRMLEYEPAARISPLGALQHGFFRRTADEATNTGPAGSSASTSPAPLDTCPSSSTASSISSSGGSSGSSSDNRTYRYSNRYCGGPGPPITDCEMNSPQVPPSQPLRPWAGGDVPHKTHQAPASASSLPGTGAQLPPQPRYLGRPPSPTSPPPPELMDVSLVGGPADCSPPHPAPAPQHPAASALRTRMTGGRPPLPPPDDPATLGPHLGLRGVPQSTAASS
UniProt Q92630: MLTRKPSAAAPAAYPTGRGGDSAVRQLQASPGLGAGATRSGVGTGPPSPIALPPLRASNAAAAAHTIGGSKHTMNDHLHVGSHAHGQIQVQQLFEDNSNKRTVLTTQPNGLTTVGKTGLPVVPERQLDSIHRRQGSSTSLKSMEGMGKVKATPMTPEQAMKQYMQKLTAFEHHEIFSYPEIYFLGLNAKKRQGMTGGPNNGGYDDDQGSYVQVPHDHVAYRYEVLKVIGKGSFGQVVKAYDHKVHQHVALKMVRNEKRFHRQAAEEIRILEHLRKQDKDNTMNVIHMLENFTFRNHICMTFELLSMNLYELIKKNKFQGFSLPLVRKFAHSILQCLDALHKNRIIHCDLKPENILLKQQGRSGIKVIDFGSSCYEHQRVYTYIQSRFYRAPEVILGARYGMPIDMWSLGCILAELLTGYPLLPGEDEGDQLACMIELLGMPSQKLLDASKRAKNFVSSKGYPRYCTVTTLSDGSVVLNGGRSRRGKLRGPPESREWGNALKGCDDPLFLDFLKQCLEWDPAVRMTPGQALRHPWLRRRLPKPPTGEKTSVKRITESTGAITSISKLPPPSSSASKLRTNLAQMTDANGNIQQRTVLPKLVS

Assays:
Experiment in all cases: number of time points (of 5) at which kinase-Nluc abundance scored as decreased, DMSO-normalised (count); higher = more persistent destabilization
Conditions in all cases: K562; 2-18 h
CSNK1A1 = CSNK1A1 (UniProt P48729)
CSNK1D = CSNK1D (UniProt P48730)
DDR1 = DDR1 (UniProt Q08345)
DYRK1B = DYRK1B (UniProt Q9Y463)
DYRK2 = DYRK2 (UniProt Q92630)
EGFR = EGFR (UniProt P00533)
EGFR_G719S = EGFR_G719S (UniProt P00533)
EGFR_G719S_T790M = EGFR_G719S_T790M (UniProt P00533)
EGFR_L718V = EGFR_L718V (UniProt P00533)
EGFR_L858R = EGFR_L858R (UniProt P00533)

Measured: number of time points

CCN1CCN(Cc2ccc(Nc3ncc(F)c(-c4cc(F)c5nc(CO)n(C(C)C)c5c4)n3)nc2)CC1 [Abemaciclib metabolite M20] (2 µM)
0: all assays above

O=C(Nc1ccc2[nH]nc(-c3ccncc3)c2c1)[C@@H]1CCN(CC(=O)N2CCN(c3ccc(-c4ncccn4)cc3)CC2)C1 (2.5 µM)
0: all assays above

Cc1cc(O)c(C(C)C)cc1N=O [Poloxime] (10 µM)
0: all assays above

OC(COc1ccc(C(F)(F)F)cc1)CN(Cc1ccccc1)Cc1ccccc1 (stereo not given) (2.5 µM)
0: all assays above

C#CCN(C)C(=O)CCNc1nc(N2CCN(C(=O)C=C)CC2)c2cc(Cl)c(-c3c(O)cccc3F)c(F)c2n1 [ARS-1323-alkyne] (2.5 µM)
0: all assays above

O=C(Nc1nc2ccccc2[nH]1)c1cccc(-n2cccc2)c1 (10 µM)
0: all assays above

O=C(NCCCNC(=O)Nc1cccc(C2=NCCN2)c1)Nc1cccc(C2=NCCN2)c1 [p32 Inhibitor M36] (10 µM)
0: all assays above

N#Cc1cccc(-c2c[nH]c3ncnc(N4CCOCC4)c23)c1 (10 µM)
0: all assays above

CC(C)(C)c1ccc(S(=O)(=O)Nc2ccc(-n3ccnc3)cc2)cc1 (10 µM)
0: all assays above

CC(=O)N1CCN(c2cc(-c3cc(C(F)(F)F)c4c(N)ncnn34)ccc2C#N)C(=O)C1(C)C (10 µM)
0: all assays above

Not a retest: 2 of the compounds above.
O=C(NCCCNC(=O)Nc1cccc(C2=NCCN2)c1)Nc1cccc(C2=NCCN2)c1 [p32 Inhibitor M36] (10 µM)
0: all assays above

N#Cc1cccc(-c2c[nH]c3ncnc(N4CCOCC4)c23)c1 (10 µM)
0: all assays above

Going on with the list:

CCOc1ccc(C(=O)Nc2ncc([N+](=O)[O-])s2)cc1 (10 µM)
0: all assays above
